For the assay, the target named is GFP-SET (UniProt Q01105). Kind of assay: affinity purification with mass spectrometry; immunoprecipitation of GFP-SET or GFP with the anti-GFP antibody, mass spectrometry of the immunoprecipitated proteins.

By UniProt entry, the sequences of proteins in these tests, tags left out.
UniProt Q01105: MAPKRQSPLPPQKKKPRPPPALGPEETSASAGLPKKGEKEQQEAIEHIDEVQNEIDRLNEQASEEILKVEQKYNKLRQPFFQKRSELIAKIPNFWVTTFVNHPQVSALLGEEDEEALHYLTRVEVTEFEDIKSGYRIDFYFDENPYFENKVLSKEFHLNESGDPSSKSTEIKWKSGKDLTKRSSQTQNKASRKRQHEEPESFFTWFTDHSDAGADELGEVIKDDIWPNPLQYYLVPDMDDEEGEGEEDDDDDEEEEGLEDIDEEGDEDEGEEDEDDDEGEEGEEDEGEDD
UniProt P04406: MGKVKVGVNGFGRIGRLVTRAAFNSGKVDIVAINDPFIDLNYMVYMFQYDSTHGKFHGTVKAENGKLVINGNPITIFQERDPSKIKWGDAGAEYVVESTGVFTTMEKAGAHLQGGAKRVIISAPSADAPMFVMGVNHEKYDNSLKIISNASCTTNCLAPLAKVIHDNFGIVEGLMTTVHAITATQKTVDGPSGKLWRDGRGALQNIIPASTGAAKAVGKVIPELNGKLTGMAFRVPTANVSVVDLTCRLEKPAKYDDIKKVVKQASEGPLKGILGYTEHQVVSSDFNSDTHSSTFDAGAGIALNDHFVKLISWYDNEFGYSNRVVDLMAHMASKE

These are yes or no findings as the source states them, for the method shown. Binding seen in cells or lysates may run through a third protein. These calls come from enrichment with a bait or labelling near it, and not all partners need be listed.

“glyceraldehyde-3-phosphate dehydrogenase (from UniProt P04406 1-335)”: the binding entry is “binds”.

B1: SAP18 (protein, UniProt O00422 1-153)
chain: MAVESRVTQEEIKKEPEKPIDREKTCPLLLRVFTTNNGRHHRMDEFSRGNVPSSELQIYTWMDATLKELTSLVKEVYPEARKKGTHFNFAIVFTDVKRPGYRVKEIGSTMSGRKGTDDSMTLQSQKFQIGDYLDIAITPPNRAPPPSGRMRPY
Take B1: the binding result is listed as “binds”.

Values taken from article PMC8260731.
